This experiment addresses GATA binding protein 3 (GATA3) (human (endogenous in primary CD4+ T cells)) (UniProt P23771). The experiment in a line: co-IP; GATA3 antibody (16E10A23, Biolegend) on Protein G beads, incubated overnight at 4 °C with RIPA lysates of CD4+ T cells with or without hydroxyurea treatment; western blot.

Amino acid sequences for entries named in this document (tags omitted).
UniProt P23771: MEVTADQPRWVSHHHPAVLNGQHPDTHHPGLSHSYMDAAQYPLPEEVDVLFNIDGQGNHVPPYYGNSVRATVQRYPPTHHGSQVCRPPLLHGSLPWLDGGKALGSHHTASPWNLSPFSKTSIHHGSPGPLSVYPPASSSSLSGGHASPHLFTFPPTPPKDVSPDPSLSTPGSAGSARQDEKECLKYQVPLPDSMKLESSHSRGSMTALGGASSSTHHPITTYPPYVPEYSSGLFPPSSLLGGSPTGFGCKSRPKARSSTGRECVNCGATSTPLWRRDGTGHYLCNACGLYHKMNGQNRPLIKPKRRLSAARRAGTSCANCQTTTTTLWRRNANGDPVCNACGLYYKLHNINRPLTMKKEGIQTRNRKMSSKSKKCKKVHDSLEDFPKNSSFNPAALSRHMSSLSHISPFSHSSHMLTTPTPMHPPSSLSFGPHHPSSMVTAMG

Results are given in words; binding and its absence hold for the method and conditions named. Binding seen in cells or lysates may run through a third protein. Some results given as binding are weak or reduced against the parent protein; the word gives no strength.

B1: NRF1 (protein, UniProt Q16656 1-503)
chain: MEEHGVTQTEHMATIEAHAVAQQVQQVHVATYTEHSMLSADEDSPSSPEDTSYDDSDILNSTAADEVTAHLAAAGPVGMAAAAAVATGKKRKRPHVFESNPSIRKRQQTRLLRKLRATLDEYTTRVGQQAIVLCISPSKPNPVFKVFGAAPLENVVRKYKSMILEDLESALAEHAPAPQEVNSELPPLTIDGIPVSVDKMTQAQLRAFIPEMLKYSTGRGKPGWGKESCKPIWWPEDIPWANVRSDVRTEEQKQRVSWTQALRTIVKNCYKQHGREDLLYAFEDQQTQTQATATHSIAHLVPSQTVVQTFSNPDGTVSLIQVGTGATVATLADASELPTTVTVAQVNYSAVADGEVEQNWATLQGGEMTIQTTQASEATQAVASLAEAAVAASQEMQQGATVTMALNSEAAAHAVATLAEATLQGGGQIVLSGETAAAVGALTGVQDANGLVQIPVSMYQTVVTSLAQGNGPVQVAMAPVTTRISDSAVTMDGQAVEVVTLEQ
In the case of B1, the binding result is on record as “no binding”.

B2: nuclear factor erythroid 2-related factor 2 (NRF2) (protein, UniProt Q16236 1-605)
chain: MMDLELPPPGLPSQQDMDLIDILWRQDIDLGVSREVFDFSQRRKEYELEKQKKLEKERQEQLQKEQEKAFFAQLQLDEETGEFLPIQPAQHIQSETSGSANYSQVAHIPKSDALYFDDCMQLLAQTFPFVDDNEVSSATFQSLVPDIPGHIESPVFIATNQAQSPETSVAQVAPVDLDGMQQDIEQVWEELLSIPELQCLNIENDKLVETTMVPSPEAKLTEVDNYHFYSSIPSMEKEVGNCSPHFLNAFEDSFSSILSTEDPNQLTVNSLNSDATVNTDFGDEFYSAFIAEPSISNSMPSPATLSHSLSELLNGPIDVSDLSLCKAFNQNHPESTAEFNDSDSGISLNTSPSVASPEHSVESSSYGDTLLGLSDSEVEELDSAPGSVKQNGPKTPVHSSGDMVQPLSPSQGQSTHVHDAQCENTPEKELPVSPGHRKTPFTKDKHSSRLEAHLTRDELRAKALHIPFPVEKIINLPVVDFNEMMSKEQFNEAQLALIRDIRRRGKNKVAAQNCRKRKLENIVELEQDLDHLKDEKEKLLKEKGENDKSLHLLKKQLSTLYLEVFSMLRDEDGKPYSPSEYSLQQTRDGNVFLVPKSKKPDVKKN
Regarding B2, the binding result is reported as “binds”.

B3: SOD3 (protein, UniProt P08294 19-240)
chain: WTGEDSAEPNSDSAEWIRDMYAKVTEIWQEVMQRRDDDGALHAACQVQPSATLDAAQPRVTGVVLFRQLAPRAKLDAFFALEGFPTEPNSSSRAIHVHQFGDLSQGCESTGPHYNPLAVPHPQHPGDFGNFAVRDGSLWRYRAGLAASLAGPHSIVGRAVVVHAGEDDLGRGGNQASVENGNAGRRLACCVVGVCGPGLWERQAREHSERKKRRRESECKAA
Consider B3, for which the binding result is given as “binds”.

The values are drawn from publication PMC8184923.
